Whole data set: some 33,000 sequences, median “E-score (-0.5 to 0.5)” near -0.0014, cut for the highest 2% near 0.25. The list shows a part of the results.
Biological target: T1, Cad1 (UniProt P24813)
T1 sequence: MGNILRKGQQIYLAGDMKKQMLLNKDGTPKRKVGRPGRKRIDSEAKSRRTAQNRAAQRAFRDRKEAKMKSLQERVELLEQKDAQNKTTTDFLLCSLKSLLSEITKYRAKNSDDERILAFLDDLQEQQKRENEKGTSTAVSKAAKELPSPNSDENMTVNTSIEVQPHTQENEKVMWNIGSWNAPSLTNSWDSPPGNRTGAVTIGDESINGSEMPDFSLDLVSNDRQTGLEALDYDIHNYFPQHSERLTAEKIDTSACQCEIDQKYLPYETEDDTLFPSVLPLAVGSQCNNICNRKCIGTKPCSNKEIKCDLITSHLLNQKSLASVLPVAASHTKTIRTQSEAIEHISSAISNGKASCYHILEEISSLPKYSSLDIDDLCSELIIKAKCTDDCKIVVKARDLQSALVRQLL
Experiment: PBM E-score (8-mer binding enrichment) (E-score (-0.5 to 0.5)); higher = stronger / more preferred TF binding
Details: protein concentration: 100 nM; construct: GST-full length
Outline: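 Universal all-10-mer Agilent arrays, fresh or stripped once, were converted to double-stranded form by primer extension. GST-tagged yeast transcription factors from PURExpress in vitro transcription/translation, full-length or DNA-binding domain only, were applied at about 100-200 nM and detected with fluorescent anti-GST. After masliner normalisation, the Universal PBM Analysis Suite scored each ungapped eight-base word together with its reverse complement by E-score.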

Row | Sequence | PBM E-score
1 | CCAATGAC | -0.0858
2 | CGGCCACC | -0.124
3 | TAACCCCA | -0.262
4 | GCATCGAC | -0.0789
5 | CTTCCGAA | 0.0246
6 | TCCTAAAA | 0.0491
7 | CACCAGAA | -0.215
8 | AGGACACA | 0.162
9 | GATGACGA | 0.0955
10 | GATCGTTA | -0.0257
11 | ATCAGCTG | 0.163
12 | CCAGGCGA | -0.175
13 | AGCCCTGA | -0.113
14 | AGGAATCA | 0.112
15 | GTTGTGTA | 0.0512
16 | AATTCTAT | 0.0576
17 | CCTTTGCG | -0.0321
18 | GAGTCGTA | -0.0818
19 | ACTGAATC | -0.0362
20 | GGCCCGTA | -0.00128
21 | AGGAACCA | 0.0785
22 | CCAATCAC | -0.135
23 | TCCCGGCA | -0.0759
24 | TCTAACAA | -0.00499
25 | CCACCCCC | -0.302

Reprinted at random: two records from the list.
Row | Sequence | PBM E-score
12 | CCAGGCGA | -0.175
11 | ATCAGCTG | 0.163

Carrying on:

Row | Sequence | PBM E-score
26 | CTTGTATA | 0.152
27 | CAAGAAAG | -0.0355
28 | ATGTGCTG | 0.187
29 | AGTACTGC | -0.0668
30 | GTCTGTGA | 0.0752
31 | GAAAATCA | 0.133
32 | CAGGACAA | 0.235
33 | CCCACGTA | -0.127
34 | AGTCATGC | 0.0722
35 | CCGTACGA | 0.0393
36 | CCGGCCGC | -0.106
37 | ACACTCAG | 0.00205
38 | AGGAAATA | 0.246
39 | CTTCACCA | -0.244
40 | AAAAAAGG | 0.0457
41 | CTCTAGGA | -0.307
42 | CTGAAATC | 0.00588
43 | ACAGTGTC | 0.00997
44 | TGTCAAAA | -0.0597
45 | AATTGTAT | 0.106
46 | ATTTTGGA | 0.144
47 | CACTTCCC | -0.118
48 | CACGCTGG | -0.114
49 | CAAGTACA | -0.0449
50 | GGCCCCAC | -0.262

Row | Sequence | PBM E-score
51 | CTGACTTC | 0.084
52 | AAAGTTTC | 0.00219
53 | GAGTCGCA | -0.262
54 | GGCAATGA | -0.161
55 | CAGGTGAG | -0.218
56 | AACGGGCT | -0.101
57 | GGTGATTA | 0.236
58 | ACCCTCCA | -0.229
59 | AATCGGCC | -0.00254
60 | CCGATCCA | -0.0429
61 | AGCAACCG | 0.0506
62 | CATCAGGG | -0.00636
63 | CTAGTTAC | -0.0303
64 | AACTTGCG | 0.0928
65 | ATCAGACA | 0.0343
66 | AGGTTGAC | -0.0657
67 | AAGGATTA | -0.0449
68 | GTACATTA | 0.0633
69 | ATCCTCAT | -0.191
70 | GGTCCGCA | 0.0635
71 | AGGCAGTC | -0.113
72 | ACCTGCAT | 0.105
73 | CTAATAAG | 0.0516
74 | CTCAATTA | 0.042
75 | CGACACGA | 0.207

Row | Sequence | PBM E-score
76 | AACGAAGC | 0.111
77 | CCTTCTCC | -0.203
78 | CCAACGTC | -0.0432
79 | CGCATACC | 0.0497
80 | AAGGCATG | -0.2
81 | AGGCGTAA | 0.0268
82 | AAACCTGT | -0.0205
83 | ACTAGCAT | -0.0862
84 | CAGACGGA | 0.106
85 | ACATATTC | 0.153
86 | TTAAAAAA | 0.181
87 | GTAGCATA | -0.0152
88 | GTAAGGAA | 0.0816
89 | CGAGCGAG | 0.258
90 | ATTATTCG | 0.195
91 | ACCCCGTG | -0.0981
92 | CGTAATAC | 0.186
93 | CCGCTGGA | -0.141
94 | CAGGGGCA | -0.0406
95 | CTCCTTCA | -0.151
96 | AGGGATAT | 0.0686
97 | CTCATGAA | 0.0604
98 | AGTTTGTG | -0.0199
99 | ATAAACAA | 0.261
100 | GCGTAACA | 0.151

Rewritten comma-delimited: part of the list above.
Row,Sequence,PBM E-score
28,ATGTGCTG,0.187
29,AGTACTGC,-0.0668

Further entries follow.

Row | Sequence | PBM E-score
101 | AATTTGCA | 0.0123
102 | GTCAAACA | -0.0631
103 | CCCATGGC | -0.202
104 | GTCCCGTA | -0.203
105 | ATCCACGG | 0.0648
106 | CCGTATCC | 0.0238
107 | CATGTGCC | -0.0619
108 | AATTTAAC | 0.124
109 | CACACTAC | -0.00395
110 | AAGATGTC | -0.188
111 | AATCGTGT | 0.039
112 | AAGTTTGA | 0.0388
113 | CACGAGCC | -0.209
114 | ACGTCCGA | -0.0154
115 | AGTCTTAC | -0.112
116 | AGCTTGCA | 0.177
117 | AACTCGGA | -0.0153
118 | AGACGTCA | -0.096
119 | CTTTCCAA | -0.0504
120 | AAGCACAT | 0.254
121 | CGTATTCC | 0.0639
122 | GCAGACCC | -0.294
123 | CATGGTGG | -0.17
124 | GATCCGAC | -0.0611
125 | ACTCGGCT | -0.0579

An excerpt of the results above, as a working copy:
Row | Sequence | PBM E-score
72 | ACCTGCAT | 0.105
73 | CTAATAAG | 0.0516
74 | CTCAATTA | 0.042
75 | CGACACGA | 0.207
76 | AACGAAGC | 0.111
77 | CCTTCTCC | -0.203
78 | CCAACGTC | -0.0432

Remaining list, next part:

Row | Sequence | PBM E-score
126 | CGGCAGCC | -0.0555
127 | AGTCCATA | -0.0182
128 | AATCTTAC | 0.15
129 | CTTGCGGC | 0.0936
130 | CTCCAGGC | -0.0803
131 | ATGCGACA | 0.106
132 | ACACCCTC | -0.231
133 | GGCCGGCC | -0.0682
134 | CTTCTGCA | -0.0629
135 | GCGAACGA | 0.00243
136 | AATCCCGG | -0.0443
137 | GGCAGCAA | -0.0553
138 | ACAATTTA | 0.0347
139 | GAATCTGA | -0.178
140 | TCACACAA | -0.0186
141 | AACGCACG | 0.201
142 | CCGAACTC | 0.00655
143 | AGTGCAGG | -0.0292
144 | GGCTGTCA | -0.11
145 | ACAGGGAG | -0.139
146 | ACTCTCAT | 0.0485
147 | AGCGGAAA | 0.139
148 | CCATGTAA | 0.0299
149 | AGATACCA | 0.221
150 | TAAGGCAA | -0.0649

Row | Sequence | PBM E-score
151 | ATACCTTA | 0.0486
152 | AGTCATTG | -0.0467
153 | CCACGGCA | -0.0783
154 | TCAGGCCA | -0.00554
155 | AGTGTTAG | 0.144
156 | AGAGATTA | 0.156
157 | CATAGGAG | -0.108
158 | ACTAACCA | 0.111
159 | GCGCCTAA | 0.139
160 | ACCCGACG | -0.039
161 | AAATCCTA | 0.0288
162 | AGAACCGG | 0.0207
163 | ACGCCTCC | -0.214
164 | ATCCCCAG | -0.15
165 | CACCGAAA | 0.12
166 | CTCACAGC | -0.0648
167 | ATCTGCGG | 0.145
168 | ACCAATTG | 0.165
169 | ATCTGAAT | 0.0633
170 | CCCGGCGC | -0.212
171 | CCGTTGCC | -0.137
172 | AGGGGGAG | -0.418
